Assay results from article PMC11672271.
Results are given in words; binding and its absence hold for the method and conditions named. Binding seen in cells or lysates may run through a third protein. Some binding calls cover weakened binding; strength is not graded here. Values belong to the substance of their own block, whether it stands above or below them.

Amino acid sequences for entries named in this document (tags omitted). A change or cut given only in a name is not applied to a line headed by its entry. Chains listed by the source or under a name are the forms on record and can include a tag or linker. Residues count along the entry.
UniProt P42227: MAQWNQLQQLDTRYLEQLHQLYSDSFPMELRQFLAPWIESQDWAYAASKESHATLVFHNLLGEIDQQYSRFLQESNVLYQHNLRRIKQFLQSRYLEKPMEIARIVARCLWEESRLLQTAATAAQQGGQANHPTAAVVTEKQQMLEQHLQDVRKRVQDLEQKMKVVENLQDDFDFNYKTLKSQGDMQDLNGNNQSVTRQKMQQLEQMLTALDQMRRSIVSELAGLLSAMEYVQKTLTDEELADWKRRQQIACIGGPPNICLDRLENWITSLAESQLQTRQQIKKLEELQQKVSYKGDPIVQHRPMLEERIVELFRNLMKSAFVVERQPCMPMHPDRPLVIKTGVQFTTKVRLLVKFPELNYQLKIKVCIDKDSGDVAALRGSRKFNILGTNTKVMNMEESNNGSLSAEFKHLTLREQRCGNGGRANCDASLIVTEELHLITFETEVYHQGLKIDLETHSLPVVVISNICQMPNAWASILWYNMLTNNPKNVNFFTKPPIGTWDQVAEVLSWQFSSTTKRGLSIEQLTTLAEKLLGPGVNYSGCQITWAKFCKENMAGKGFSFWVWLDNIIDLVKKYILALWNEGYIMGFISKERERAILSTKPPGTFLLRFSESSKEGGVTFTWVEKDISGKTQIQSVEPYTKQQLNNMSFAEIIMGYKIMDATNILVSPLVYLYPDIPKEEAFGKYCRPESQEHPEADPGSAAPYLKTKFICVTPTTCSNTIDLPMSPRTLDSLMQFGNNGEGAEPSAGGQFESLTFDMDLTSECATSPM
N-terminal domain of STAT3 (1-355), as used in Figure 3D: residues 1-355 of P42227
STAT3-K177K180R (P42227, form named): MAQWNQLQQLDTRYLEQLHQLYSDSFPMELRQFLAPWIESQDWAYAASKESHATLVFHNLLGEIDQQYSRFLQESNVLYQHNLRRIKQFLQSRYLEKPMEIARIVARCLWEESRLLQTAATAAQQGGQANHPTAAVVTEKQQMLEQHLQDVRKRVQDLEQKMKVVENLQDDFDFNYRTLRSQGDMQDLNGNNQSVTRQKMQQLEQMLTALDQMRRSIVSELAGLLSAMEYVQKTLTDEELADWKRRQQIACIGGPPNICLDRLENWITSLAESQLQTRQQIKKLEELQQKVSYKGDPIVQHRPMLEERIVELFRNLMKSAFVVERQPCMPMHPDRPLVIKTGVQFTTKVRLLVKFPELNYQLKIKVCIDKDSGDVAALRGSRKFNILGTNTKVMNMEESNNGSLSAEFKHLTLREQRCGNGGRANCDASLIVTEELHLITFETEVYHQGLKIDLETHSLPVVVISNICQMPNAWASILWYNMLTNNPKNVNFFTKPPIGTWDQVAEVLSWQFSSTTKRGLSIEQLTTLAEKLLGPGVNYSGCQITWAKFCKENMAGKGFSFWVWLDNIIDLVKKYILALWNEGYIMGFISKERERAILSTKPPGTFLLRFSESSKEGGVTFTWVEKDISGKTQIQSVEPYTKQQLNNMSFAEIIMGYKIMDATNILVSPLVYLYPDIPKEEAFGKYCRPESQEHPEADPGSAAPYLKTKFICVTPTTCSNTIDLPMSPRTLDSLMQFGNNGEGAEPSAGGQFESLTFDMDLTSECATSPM
UniProt A6H5Z3: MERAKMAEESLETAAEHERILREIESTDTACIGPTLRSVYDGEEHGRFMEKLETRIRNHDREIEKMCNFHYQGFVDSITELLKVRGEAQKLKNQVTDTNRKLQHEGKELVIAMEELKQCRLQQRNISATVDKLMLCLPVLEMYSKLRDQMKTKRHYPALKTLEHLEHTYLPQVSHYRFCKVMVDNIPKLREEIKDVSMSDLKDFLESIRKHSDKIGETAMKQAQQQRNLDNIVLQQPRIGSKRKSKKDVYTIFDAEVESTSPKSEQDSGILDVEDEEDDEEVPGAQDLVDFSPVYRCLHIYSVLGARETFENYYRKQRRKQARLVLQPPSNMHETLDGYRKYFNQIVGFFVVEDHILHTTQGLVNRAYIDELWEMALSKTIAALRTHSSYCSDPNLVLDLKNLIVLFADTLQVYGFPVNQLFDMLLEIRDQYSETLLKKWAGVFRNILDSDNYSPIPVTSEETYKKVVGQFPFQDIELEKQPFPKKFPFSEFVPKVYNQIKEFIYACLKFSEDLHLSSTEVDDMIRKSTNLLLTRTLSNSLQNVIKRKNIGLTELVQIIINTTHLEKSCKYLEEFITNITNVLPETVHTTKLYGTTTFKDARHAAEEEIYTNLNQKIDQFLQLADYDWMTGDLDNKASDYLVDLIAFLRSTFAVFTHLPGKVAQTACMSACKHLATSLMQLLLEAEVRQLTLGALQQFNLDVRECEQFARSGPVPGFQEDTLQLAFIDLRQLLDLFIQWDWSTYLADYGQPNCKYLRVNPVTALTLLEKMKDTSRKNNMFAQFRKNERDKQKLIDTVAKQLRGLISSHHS

What was measured:
[1] = biological target: Myc-STAT3 full length (FL) (UniProt P42227); assay: co-IP; Myc-STAT3 and Flag-Sec15b co-transfected in HEK293T, cells pretreated with brefeldin A (BFA) as indicated; Western blot
[2] = biological target: Myc-STAT3 full length (FL) (UniProt P42227); assay: co-IP; Myc-STAT3 and Flag-Sec15b co-transfected in HEK293T, without BFA; Western blot; precipitating antibody not told
STAT3-Y293F = STAT3-Y293F (UniProt P42227); assay: co-IP; STAT3 mutants co-transfected with Flag-Sec15b in HEK293T; anti-Myc immunoprecipitates, Western blot
STAT3-R31K = STAT3-R31K (UniProt P42227); assay: as above
STAT3-C108G = STAT3-C108G (UniProt P42227); assay: as above
STAT3-K177K180R = STAT3-K177K180R (UniProt P42227); assay: as above
Flag-Sec15b = Flag-Sec15b (UniProt A6H5Z3); assay: co-IP; Myc-STAT3 full length or fragments co-transfected with Flag-Sec15b in HEK293T; anti-Flag immunoprecipitates, Western blot
[3] = biological target: N-terminal domain of STAT3 (1-355), as used in Figure 3D (UniProt P42227); assay: co-IP; N-terminal domains of STAT3 (1-355) and Sec15b (1-374) transfected into HEK293T; interaction checked by Western blot; tags and precipitating antibody not told
[4] = biological target: STAT3 (endogenous, CGR8 mESC) (mouse (endogenous in CGR8 mESC)) (UniProt P42227); assay: co-IP; endogenous STAT3 and Sec15b in CGR8 mESC after LIF withdrawal for indicated times; Western blot
[5] = biological target: STAT3 (endogenous, CGR8 mESC) (mouse (endogenous in CGR8 mESC)) (UniProt P42227); assay: co-IP; endogenous STAT3 and Sec15b in CGR8 mESC maintained in LIF; also after monensin (MNS) treatment (interaction rose with dose, peak at 2 h); Western blot

Substance: Myc-STAT3 ND domain (1-130) (from UniProt P42227 1-130) (domain or fragment)
- binding (Flag-Sec15b): no binding

Substance: Myc-STAT3 ND-CCD domain (1-355) (from UniProt P42227 1-355) (domain or fragment)
- binding (Flag-Sec15b): binds

Substance: N-terminal domain (1-374) of Sec15b (from UniProt A6H5Z3 1-374) (domain or fragment)
- binding [3]: binds

Second part, led by results:

- binding [2]: binds
- binding (STAT3-Y293F): binds
- binding (STAT3-R31K): binds
- binding (STAT3-C108G): binds
- binding (STAT3-K177K180R): binds
Substance: Flag-Sec15b (from UniProt A6H5Z3 1-810)
- binding [1]: no binding (condition: pretreatment of the cells with BFA)

- binding [5]: binds
Substance: Sec15b (endogenous, CGR8 mESC) (from UniProt A6H5Z3 1-810)
- binding [4]: no binding (condition: LIF withdrawal from the medium)
